Assay results taken from patent publication US20180327752A1 (Stanford University, published 2018).
No constants are given. Whether binding was seen depends on the method and setting. Some entries that bind do so weakly or less than the wild type. Sequences can lack the tags named with a protein.

The chains behind the UniProt entries cited, without tags or fusion partners.
UniProt P03135: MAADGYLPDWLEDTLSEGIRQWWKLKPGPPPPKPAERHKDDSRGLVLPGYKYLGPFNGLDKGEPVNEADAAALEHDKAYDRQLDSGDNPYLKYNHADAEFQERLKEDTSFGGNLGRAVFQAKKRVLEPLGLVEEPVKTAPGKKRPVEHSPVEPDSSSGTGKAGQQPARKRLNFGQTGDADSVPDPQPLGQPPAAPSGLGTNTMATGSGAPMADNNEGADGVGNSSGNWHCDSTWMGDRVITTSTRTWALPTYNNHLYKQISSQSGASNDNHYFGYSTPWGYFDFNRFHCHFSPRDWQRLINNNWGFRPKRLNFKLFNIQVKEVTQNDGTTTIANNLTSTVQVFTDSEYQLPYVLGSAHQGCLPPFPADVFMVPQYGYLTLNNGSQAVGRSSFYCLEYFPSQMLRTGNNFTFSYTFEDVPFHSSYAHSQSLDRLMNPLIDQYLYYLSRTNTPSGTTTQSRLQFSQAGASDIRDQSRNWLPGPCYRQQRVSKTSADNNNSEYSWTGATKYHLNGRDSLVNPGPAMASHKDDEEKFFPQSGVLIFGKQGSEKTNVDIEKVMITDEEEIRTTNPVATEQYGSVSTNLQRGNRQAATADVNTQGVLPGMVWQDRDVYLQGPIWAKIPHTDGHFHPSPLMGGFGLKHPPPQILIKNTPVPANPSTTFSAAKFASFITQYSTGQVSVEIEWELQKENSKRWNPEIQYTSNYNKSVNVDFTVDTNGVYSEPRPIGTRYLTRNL

Experiments:
[1] = molecular target: AAV2 particles (adeno-associated virus serotype 2 capsid) (adeno-associated virus serotype 2) (UniProt P03135); experiment: ELISA with MBP control; SPR
[2] = molecular target: AAV2 particles (adeno-associated virus serotype 2 capsid) (adeno-associated virus serotype 2) (UniProt P03135); experiment: ELISA, AAV2 particles coated
[3] = molecular target: AAV2 particles (adeno-associated virus serotype 2 capsid) (adeno-associated virus serotype 2) (UniProt P03135); experiment: summary sentence of Example 1 (ELISA, SPR)
[4] = molecular target: AAV2 particles (adeno-associated virus serotype 2 capsid) (adeno-associated virus serotype 2) (UniProt P03135); experiment: ELISA, AAV2 VLPs coated, detection with anti-MBP-HRP
[5] = molecular target: AAV2 particles (adeno-associated virus serotype 2 capsid) (adeno-associated virus serotype 2) (UniProt P03135); experiment: ELISA: plates coated with AAV2 virus-like particles, soluble AAVR (MBP-PKD1-5) detected with anti-MBP-HRP, A450
[6] = molecular target: AAV2 particles (adeno-associated virus serotype 2 capsid) (adeno-associated virus serotype 2) (UniProt P03135); experiment: SPR (BIAcore X): His-tagged soluble AAVR immobilised on a CM5 chip, AAV-2 particles as analyte at 100, 250, 500 and 1000 nM

Measured: binding

B1: soluble AAVR (E. coli-expressed recombinant fusion between maltose-binding protein and AAVR PKD domains 1-5) (receptor)
chain: VSAGESVQITLPKNEVQLNAYVLQEPPKGETYTYDWQLITHPRDYSGEMEGKHSQILKLSKLTPGLYEFKVIVEGQNAHGEGYVNVTVKPEPRKNRPPIAIVSPQFQEISLPTTSTVIDGSQSTDDDKIVQYHWEELKGPLREEKISEDTAILKLSKLVPGNYTFSLTVVDSDGATNSTTANLTVNKAVDYPPVANAGPNQVITLPQNSITLFGNQSTDDHGITSYEWSLSPSSKGKVVEMQGVRTPTLQLSAMQEGDYTYQLTVTDTIGQQATAQVTVIVQPENNKPPQADAGPDKELTLPVDSTTLDGSKSSDDQKIISYLWEKTQGPDGVQLENANSSVATVTGLQVGTYVFTLTVKDERNLQSQSSVNVIVKEEINKPPIAKITGNVVITLPTSTAELDGSKSSDDKGIVSYLWTRDEGSPAAGEVLNHSDHHPILFLSNLVEGTYTFHLKVTDAKGESDTDRTTVEVKPDPR
notes: Used in the ELISA on AAV2 VLPs and in the neutralization assay; also called rAAVR1-5; MBP-AAVR PKD 1-5
not listed: [6]
binds: all other assays above

B2: His-tagged soluble AAVR (His-tagged MBP fusion with AAVR PKD domains 1-5) (receptor)
chain: B1 chain
notes: Construct immobilised on the CM5 chip for SPR; also called AAVR (SPR ligand); not shown: His tag
binds: [6]
